In the supplement of paper PMC6289059:
This is one part of the list. Repeats are few or missing, and single values can be far off.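 The cells are hepatocyte-like cells grown from human stem cells in which the DGUOK gene was disrupted by CRISPR, a model of liver mtDNA depletion syndrome. Each well's ATP signal was scored against the other wells on its plate, and a drug counted as a primary hit when its score was 3 or higher.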 Non-standard residues stand in square brackets, D forms with d. Residues, ends and D or L forms follow the SMILES beside them. pGlu = O=C1CC[C@@H](C(=O)O)N1; Thz = O=C(O)[C@@H]1CSCN1

Tested on: DGUOK Δ14/Δ5 iPSC-derived hepatocyte-like cells (SV20)
Assay: ATP level (CellTiter-Glo luminescence) Z score relative to plate distribution, under 2-DG glycolysis block; higher = more cellular ATP (rescue of mitochondrial ATP production)
Details: 5 µM; treatment time: day 15 to day 20 of differentiation (5 days); 2-deoxy-D-glucose: 20 mM for 24 h before assay

Row | Structure (SMILES) | ATP level
1 | CC(O)(CC(=O)O)CC(=O)O | inactive: -10.3
2 | CCCCS(=N)(=O)CCC(N)C(=O)O (centres undefined) | active: 4.12
3 | C[C@@H]1CN(c2c(F)c(F)c3c(=O)c(C(=O)O)cn(C4CC4)c3c2F)C[C@H](C)N1 | inactive: -1.18
4 | CC(=O)Oc1ccc(C(c2ccc(OC(C)=O)cc2)c2ccccn2)cc1 | inactive: -3.2
5 | CCOC(=O)CC(=O)N1CCSC1COc1ccccc1OC (centres undefined) | inactive: -0.93
6 | N=c1nc(N2CCCCC2)cc(N)n1O | inactive: 0.414
7 | C[C@@H]1CC[C@@]2(OC1)O[C@H]1C[C@H]3[C@@H]4CC=C5C[C@@H](O)CC[C@]5(C)[C@H]4CC[C@]3(C)[C@H]1[C@@H]2C | inactive: 0.765
8 | OCCc1ccccc1 | inactive: 0.699
9 | O=C(O)c1ccccc1Nc1cccc(C(F)(F)F)c1 | inactive: 1.93
10 | CC(=O)Nc1ccc(S(=O)(=O)c2ccc(NC(C)=O)cc2)cc1 | inactive: -0.151
11 | O=C1O[C@H]([C@@H](O)CO)C(O)=C1O | inactive: 0.577
12 | Clc1ccc(C(c2ccccc2Cl)C(Cl)Cl)cc1 (centres undefined) | inactive: -0.802
13 | O=C(O)c1ccc2c(c1)OCO2 | inactive: -0.464
14 | O=C(/C=C/c1ccccc1)c1ccc(O)cc1 | inactive: 0.892
15 | CN(C)CCOC(=O)C(c1ccccc1)C1(O)CCCC1 (centres undefined) | inactive: 1.38
16 | CCc1cc(Cl)c(OC)c(C(=O)NC[C@@H]2CCCN2CC)c1O | inactive: -0.786
17 | C[C@H](N[C@@H](CCc1ccccc1)C(=O)O)C(=O)N1Cc2ccccc2C[C@H]1C(=O)O | inactive: 1.93
18 | Nc1ccc(/N=N/c2ccccc2)c(N)n1 | inactive: 1.68
19 | Cc1c(S(=O)(=O)O)oc2c1C(=O)C(=O)c1c-2ccc2c1CCCC2(C)C | inactive: -0.519
20 | NCCCS(=O)(=O)O | inactive: 0.455
21 | Nc1nc(/C(=C/CC(=O)O)C(=O)N[C@@H]2C(=O)N3C(C(=O)O)=CCS[C@H]23)cs1 | inactive: -1.23

Row | Structure (SMILES) | ATP level
22 | CC1(C)CC2C1CC[C@]1(C)CCC3C(C(=O)O)CC(=O)O[C@@]32C1 (some centres undefined) [3-HYDROXY-4-(SUCCIN-2-YL)-CARYOLANE delta-LACTONE] | inactive: 1.87
23 | CCCNC(=O)NS(=O)(=O)c1ccc(Cl)cc1 | inactive: -11
24 | CCN(CC)C(C)CN1c2ccccc2Sc2ccccc21 (centres undefined) | inactive: 2.56
25 | CC(=O)O[C@]1(C(C)=O)CC[C@H]2[C@@H]3C=C(Cl)C4=CC(=O)CC[C@]4(C)[C@H]3CC[C@@]21C | inactive: -5.38
26 | Cc1cc(O)c(C(=O)N[C@@H](C(=O)N[C@@H]2C(=O)N3C(C(=O)O)=C(CSc4nnnn4C)CS[C@H]23)c2ccc(O)cc2)cn1 | inactive: 1.19
27 | CO[C@H]1/C=C/O[C@@]2(C)Oc3c(C)c(O)c4c(O)c(c5c(nc6cc(C)ccn65)c4c3C2=O)NC(=O)/C(C)=C\C=C\[C@H](C)[C@H](O)[C@@H](C)[C@@H](O)[C@@H](C)[C@H](OC(C)=O)[C@@H]1C | inactive: -0.323
28 | Clc1cccc(Cl)c1NC1=NCCN1 | inactive: -0.0448
29 | CCCCCCCCCCCCCCCC(=O)OC[C@H](O)[C@H]1OC(=O)C(O)=C1O | inactive: 2.09
30 | Nc1nc2c(ncn2COC(CO)CO)c(=O)[nH]1 | inactive: 1.03
31 | NCCCCCC(=O)O | inactive: 1.11
32 | CC(=O)OC/C=C(\C)CC/C=C(\C)CC/C=C(\C)CC/C=C(\C)CC/C=C(\C)CC/C=C(\C)CC/C=C(\C)CC/C=C(\C)CCC=C(C)C | inactive: 0.546
33 | CN(C)C(=N)NC(=N)N | inactive: 1.58
34 | CC1CC2C3CCC4=CC(=O)C=CC4(C)C3(F)C(O)CC2(C)C1C(=O)CO (centres undefined) | inactive: 2.1
35 | CC=CC(=O)N(CC)c1ccccc1C | inactive: -0.575
36 | CNCCc1ccccn1 | inactive: 0.83
37 | CC1=C(C)C(=O)C(C(CCCCCC(=O)O)c2ccccc2)=C(C)C1=O (centres undefined) | inactive: 2.06
38 | C[C@H]1[C@H](C)CC[C@]2(C(=O)O)CC[C@]3(C)C(=CC[C@@H]4[C@@]5(C)CC[C@H](O)C(C)(C)[C@@H]5CC[C@]43C)[C@H]12 | inactive: -2.94
39 | O=C(c1ccc(F)cc1)C1CCN(CCn2c(=O)[nH]c3ccccc3c2=O)CC1 | inactive: -0.226
40 | CCN(CC)C(=O)c1ccc(O)c(OC)c1 | inactive: 1.82
41 | COc1ccc(-c2cc(=O)c3c(O)c(OC)c(OC)c(OC)c3o2)cc1 | inactive: -2.83
42 | NC1(C(=O)O)CC1 | inactive: 0.104

Row | Structure (SMILES) | ATP level
43 | Oc1cc2c(cc1O)C1c3ccc(O)c(O)c3OCC1(O)C2 (centres undefined) | inactive: -0.556
44 | CC(=O)O[C@@H]1C[C@H]2C(C)(C)C(=O)C=C[C@]2(C)[C@H]2CC[C@@]3(C)[C@H](c4ccoc4)OC(=O)[C@H]4O[C@]43[C@@]21C | inactive: -13.3
45 | CCCOc1ccc2[nH]c(NC(=O)OC)nc2c1 | inactive: -4.11
46 | Cc1cc2nc3c(=O)[nH]c(=O)nc-3n(C[C@H](O)[C@H](O)[C@H](O)CO)c2cc1C | inactive: -0.32
47 | CC[C@H](C)[C@H]1O[C@]2(C=C[C@@H]1C)C[C@@H]1C[C@@H](C/C=C(\C)[C@@H](O[C@H]3C[C@H](OC)[C@@H](O[C@H]4C[C@H](OC)[C@@H](O)[C@H](C)O4)[C@H](C)O3)[C@@H](C)/C=C/C=C3\CO[C@@H]4[C@H](OC)C(C)=C[C@@H](C(=O)O1)[C@]34O)O2 | inactive: -18.1
48 | CN(C)CCOC(c1ccccc1)c1ccccc1.Cn1c(=O)c2[nH]c(Cl)nc2n(C)c1=O | inactive: -2.78
49 | Clc1ccc2c(c1)CCc1cccnc1C2=C1CCNCC1 | inactive: -2.77
50 | O=C1NCC2(CCN(CCc3ccccc3)CC2)O1 | inactive: -6.04
51 | COc1cc(C)c(C(=O)Oc2cc(C)c(C(=O)O)c(O)c2C)c(OC)c1C | active: 3.28
52 | O=c1[nH]cnc2nc[nH]c12 | inactive: 2.93
53 | CCOc1nc2cccc(C(=O)O)c2n1Cc1ccc(-c2ccccc2-c2nnn[nH]2)cc1 | inactive: 1.62
54 | C[C@@](Cc1ccc(O)c(O)c1)(NN)C(=O)O | inactive: 2.86
55 | C[N+](C)(CCOc1ccccc1)Cc1ccccc1.O=C(O)c1cc2ccccc2cc1[O-] | inactive: 1.81
56 | Nc1ncnc2c1ncn2[C@@H]1O[C@H](CO)[C@@H](O)[C@@H]1O | inactive: -0.0922
57 | CCCCC(CC)COC(=O)CC(C(=O)OCC(CC)CCCC)S(=O)(=O)O (centres undefined) | inactive: -0.676
58 | C[C@H]1C[C@H]2[C@@H]3CCC4=CC(=O)C=C[C@]4(C)[C@@]3(F)[C@@H](O)C[C@]2(C)[C@@]1(O)C(=O)COP(=O)(O)O | inactive: 1.76
59 | CCC1(c2ccccc2)C(=O)NCNC1=O | inactive: -0.106
60 | COc1cc(-c2ccc(/N=N/c3ccc4c(S(=O)(=O)O)cc(S(=O)(=O)O)c(N)c4c3O)c(OC)c2)ccc1/N=N/c1ccc2c(S(=O)(=O)O)cc(S(=O)(=O)O)c(N)c2c1O | inactive: -0.611
61 | CN(C)CCC(c1ccc(Br)cc1)c1ccccn1 (centres undefined) | inactive: -3.29
62 | Oc1c(Cl)cc(Cl)c2cccnc12 | inactive: -5.19
63 | c1ccc(-c2ccc(C(c3ccccc3)n3ccnc3)cc2)cc1 (centres undefined) | inactive: -1.56

Row | Structure (SMILES) | ATP level
64 | O=C1CC[C@@H](C(=O)N2CSC[C@H]2C(=O)O)N1 ([pGlu]-[Thz]-OH) | inactive: 0.0345
65 | CC(C)NCC(O)COc1ccc(CC(N)=O)cc1 (centres undefined) | inactive: 0.283
66 | C[C@H]1O[C@H](O[C@H]2[C@H](O)[C@@H](O)[C@@H](O[C@@H]([C@H](O)[C@@H](O)C=O)[C@H](O)CO)O[C@@H]2CO)[C@H](O)[C@@H](O)[C@@H]1N[C@H]1C=C(CO)[C@@H](O)[C@H](O)[C@H]1O | inactive: 0.72
67 | NC(Cn1ccc(=O)c(O)c1)C(=O)O (centres undefined) | inactive: -1
68 | CN1CCN(CC(=O)N2c3ccccc3C(=O)Nc3cccnc32)CC1 | inactive: 0.603
69 | CC(=O)N(CC(O)CO)c1c(I)c(C(=O)NCCO)c(I)c(C(=O)NCC(O)CO)c1I (centres undefined) | inactive: 2
70 | COc1ccccc1-c1cc(=O)c2c(OC)cccc2o1 | inactive: -1.64
71 | COC(=O)Nc1nc2cc(Sc3ccccc3)ccc2[nH]1 | inactive: -5.85
72 | Cn1c(=O)c2c(ncn2CC2OCCO2)n(C)c1=O | inactive: 0.298
73 | CCCCCCCC(=O)OCC(COC(=O)CCCCCCC)OC(=O)CCCCCCC | inactive: -0.787
74 | O=C(O)C1=C(CSc2nnnn2CS(=O)(=O)O)CS[C@@H]2[C@H](NC(=O)[C@H](O)c3ccccc3)C(=O)N12 | inactive: 0.91
75 | CC(C)CC(NC(=O)[C@H](C)N)C(=O)O (mixture of isomers) | inactive: -0.944
76 | CCN(CC)CCNC(=O)c1ccc(N)cc1 | inactive: 1.33
77 | NC[C@H](O)c1ccc(O)c(O)c1 | inactive: 1.4
78 | O=C(Oc1cc(O)cc2c1C[C@@H](OC(=O)c1cc(O)c(O)c(O)c1)[C@@H](c1cc(O)c(O)c(O)c1)O2)c1cc(O)c(O)c(O)c1 | inactive: 1.94
79 | CC(=O)c1cc2ccccc2oc1=O | inactive: -1.96
80 | CCCCCCOc1ccccc1C(N)=O | inactive: -0.37
81 | CC[C@H]1OC(=O)[C@H](C)[C@@H](O[C@H]2C[C@@](C)(OC)[C@@H](O)[C@H](C)O2)[C@H](C)[C@@H](O[C@@H]2O[C@H](C)C[C@H](N(C)C)[C@H]2O)[C@](C)(O)C[C@@H](C)CN(C)[C@H](C)[C@@H](O)[C@]1(C)O | inactive: 1.51
82 | CN[C@H]1CC[C@@H](c2ccc(Cl)c(Cl)c2)c2ccccc21 | inactive: -0.953
83 | Nc1ccc(S(=O)(=O)Nc2nccs2)cc1 | inactive: 0.501
84 | CC(C)[N+]1(C)[C@@H]2CC[C@H]1C[C@@H](OC(=O)C(CO)c1ccccc1)C2 (some centres undefined) | inactive: 0.322

An excerpt from above in order of heavy-atom count, low to high:
Row | Structure (SMILES) | ATP level
59 | CCC1(c2ccccc2)C(=O)NCNC1=O | inactive: -0.106
65 | CC(C)NCC(O)COc1ccc(CC(N)=O)cc1 (centres undefined) | inactive: 0.283
43 | Oc1cc2c(cc1O)C1c3ccc(O)c(O)c3OCC1(O)C2 (centres undefined) | inactive: -0.556
4 | CC(=O)Oc1ccc(C(c2ccc(OC(C)=O)cc2)c2ccccn2)cc1 | inactive: -3.2
